Experimental data reported in the supplement of paper PMC12819154, “High-throughput peptide-centric local stability assay extends protein–ligand identification to membrane proteins, tissues and bacteria” (Nature Structural & Molecular Biology, 2025).
The entries are a selection whose mix differs from that of the whole data set. Most values lie at the level of the controls, where differences are scatter.

Target: UniProt P0AAR3
Assay: log2 fold change of tryptic peptide abundance, ligand vs vehicle (limited proteolysis) (log2 ratio); higher = more trypsin-susceptible (destabilized)
Conditions: peptide sequence: RGLDIELAAGDLAK; peptide start residue: 133; ligand concentration: 5 mM; sample: E. coli desalted lysate; replicate design: treated before aliquoting
Procedure: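 HT-PELSA: desalted E. coli K-12 BW25113 lysate (with 12 mM MgCl2) incubated with 5 mM ATP (pH 7) or water for 30 min at 25 C, then a 4 min trypsin pulse at 22 C. Peptides were quantified by DIA-MS (4 replicates). Value is the peptide log2 fold change (treated/control); negative = stabilized. Scale: negative = ligand-stabilized region.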
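Also: lysate desalted by size exclusion to strip endogenous ATP, peptide intensities built from DIA-NN precursor signals, and peptides missing any value discarded before comparison.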

Row | SMILES | log2 fold change
1 | Nc1ncnc2c1ncn2[C@@H]1O[C@H](COP(=O)(O)OP(=O)(O)OP(=O)(O)O)[C@@H](O)[C@H]1O [adenosine 5'-triphosphate] | -0.315
